Data as given in US20150329644A1.
These are yes or no findings as the source states them, for the method shown. In cells and extracts the contact can be indirect. Some binding calls cover weakened binding; strength is not graded here. Tags and fused reporters may be left off the sequences shown.

Target: T1, GST-LSD2 recombinant protein (human) (UniProt Q8NB78)
T1 sequence (looked up): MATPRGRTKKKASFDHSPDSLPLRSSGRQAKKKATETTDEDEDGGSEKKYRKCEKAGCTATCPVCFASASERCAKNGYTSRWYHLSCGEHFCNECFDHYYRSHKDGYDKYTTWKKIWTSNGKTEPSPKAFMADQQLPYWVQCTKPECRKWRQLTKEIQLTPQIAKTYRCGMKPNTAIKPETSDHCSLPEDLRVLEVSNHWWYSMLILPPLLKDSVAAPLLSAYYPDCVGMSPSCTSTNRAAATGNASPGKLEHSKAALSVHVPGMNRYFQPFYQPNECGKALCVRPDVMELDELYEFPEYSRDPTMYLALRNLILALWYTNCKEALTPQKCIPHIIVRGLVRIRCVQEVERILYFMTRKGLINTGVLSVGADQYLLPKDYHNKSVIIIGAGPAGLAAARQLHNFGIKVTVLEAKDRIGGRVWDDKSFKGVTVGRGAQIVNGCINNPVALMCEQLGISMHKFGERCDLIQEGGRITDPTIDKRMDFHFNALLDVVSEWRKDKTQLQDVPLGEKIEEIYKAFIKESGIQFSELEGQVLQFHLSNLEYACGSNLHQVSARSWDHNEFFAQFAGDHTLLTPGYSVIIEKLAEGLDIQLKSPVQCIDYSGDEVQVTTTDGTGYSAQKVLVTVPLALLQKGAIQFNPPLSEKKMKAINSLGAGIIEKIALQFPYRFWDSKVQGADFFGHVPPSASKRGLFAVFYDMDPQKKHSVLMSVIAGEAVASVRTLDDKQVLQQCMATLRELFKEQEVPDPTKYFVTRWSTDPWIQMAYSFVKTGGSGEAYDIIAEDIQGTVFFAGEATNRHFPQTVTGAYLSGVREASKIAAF
Experiment: GST pulldown with GST-LSD2, SDS-PAGE, coomassie (FIG. 13D)

B1: Recombinant His-NPAC (His6 tagged full-length NPAC) purified from E. coli (protein)
chain: HHHHHHMAAVSLRLGDLVWGKLGRYPPWPGKIVNPPKDLKKPRGKKCFFVKFFGTEDHAWIKVEQLKPYHAHKEEMIKINKGKRFQQAVDAVEEFLRRAKGKDQTSSHNSSDDKNRRNSSEERSRPNSGDEKRKLSLSEGKVKKNMGEGKKRVSSGSSERGSKSPLKRAQEQSPRKRGRPPKDEKDLTIPESSTVKGMMAGPMAAFKWQPTASEPVKDADPHFHHFLLSQTEKPAVCYQAITKKLKICEEETGSTSIQAADSTAVNGSITPTDKKIGFLGLGLMGSGIVSNLLKMGHTVTVWNRTAEKCDLFIQEGARLGRTPAEVVSTCDITFACVSDPKAAKDLVLGPSGVLQGIRPGKCYVDMSTVDADTVTELAQVIVSRGGRFLEAPVSGNQQLSNDGMLVILAAGDRGLYEDCSSCFQAMGKTSFFLGEVGNAAKMMLIVNMVQGSFMATIAEGLTLAHVTGQSQQTLLDILNQGQLASIFLDQKCQNILQGNFKPDFYLKYIQKDLRLAIALGDAVNHPTPMAAAANEVYKRAKALDQSDNDMSAVYRAYIH
Question: B1 was tested. Which binding did it give?
Answer: The binding was “binds”.
